Results are given in words; binding and its absence hold for the method and conditions named. Binding seen in cells or lysates may run through a third protein. Some binding calls cover weakened binding; strength is not graded here.

Sequences of proteins named here, by UniProt entry; tags and fusion partners are left off.
UniProt P16401: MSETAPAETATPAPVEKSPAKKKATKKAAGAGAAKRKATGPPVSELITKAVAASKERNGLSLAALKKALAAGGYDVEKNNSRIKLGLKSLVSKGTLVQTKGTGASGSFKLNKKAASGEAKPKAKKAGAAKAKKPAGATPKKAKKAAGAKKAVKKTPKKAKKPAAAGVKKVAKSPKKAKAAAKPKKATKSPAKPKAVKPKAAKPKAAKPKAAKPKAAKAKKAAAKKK
UniProt P06748: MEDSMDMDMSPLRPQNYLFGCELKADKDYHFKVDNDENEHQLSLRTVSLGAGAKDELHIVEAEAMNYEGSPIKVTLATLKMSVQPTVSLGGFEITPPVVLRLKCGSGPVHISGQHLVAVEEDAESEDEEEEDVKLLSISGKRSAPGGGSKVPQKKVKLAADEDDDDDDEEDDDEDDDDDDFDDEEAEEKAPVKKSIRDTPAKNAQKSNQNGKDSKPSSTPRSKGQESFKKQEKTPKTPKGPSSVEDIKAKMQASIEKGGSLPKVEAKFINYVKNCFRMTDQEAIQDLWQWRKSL

The target in this assay is linker histone H1.5 (human (endogenous in glioma cells)) (UniProt P16401). Description: co-IP; nuclear complex co-IP; IP with H1.5 antibody, isotype (IgG) control; immunoblot for NPM1; procedures as in ref. 31. In general terms: Immunoblotting shows a protein as a band on a membrane.

Consider “NPM1 (nucleophosmin) (from UniProt P06748 1-294)”, for which the binding entry is given as “binds”.

Source of the values: PMC4642306.
